Experimental findings from paper PMC5760450, “FzlA, an essential regulator of FtsZ filament curvature, controls constriction rate during Caulobacter division” (Molecular Microbiology, 2017) are described below.

Assay [1] addresses T1, FzlA fused to the T18 or T25 domain of adenylate cyclase (bacterial two-hybrid) (Caulobacter crescentus), A0A0H3.
T1 chain: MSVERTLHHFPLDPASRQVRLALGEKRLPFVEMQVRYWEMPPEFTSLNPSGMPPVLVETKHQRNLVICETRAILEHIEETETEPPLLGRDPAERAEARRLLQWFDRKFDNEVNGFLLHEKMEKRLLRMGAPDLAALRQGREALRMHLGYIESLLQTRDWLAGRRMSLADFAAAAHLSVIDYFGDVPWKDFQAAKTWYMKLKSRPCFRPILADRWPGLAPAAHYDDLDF
Kind of assay: two-hybrid; bacterial two-hybrid (T18 and T25 adenylate cyclase fusions) in E. coli BTH101, blue colonies on X-gal with 0.5 mM IPTG. Particulars: remark: other sources report otherwise.

Assay [2] has as its target T2, FzlA as two differently tagged copies in C. crescentus strain EG2452 (3xFLAG‐FzlA and mCherry‐FzlA) (Caulobacter crescentus), A0A0H3.
T2 chain: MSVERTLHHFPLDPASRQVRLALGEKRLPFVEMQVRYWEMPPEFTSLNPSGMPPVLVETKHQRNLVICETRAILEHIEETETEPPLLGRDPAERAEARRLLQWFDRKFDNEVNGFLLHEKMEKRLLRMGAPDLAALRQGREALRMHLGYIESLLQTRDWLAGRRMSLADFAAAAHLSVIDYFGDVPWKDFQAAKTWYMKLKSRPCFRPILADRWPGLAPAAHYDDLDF
Kind of assay: co-IP; C. crescentus EG2452 lysate without crosslinking; 3xFLAG-FzlA precipitated with anti-FLAG agarose, eluted with FLAG peptide, immunoblot; 20 mM HEPES pH 7.5, 100 mM NaCl, 20% glycerol, 1% IGEPAL CA-630, 0.5% sodium deoxycholate, 2 mM EDTA. Particulars: remark: other sources report otherwise. For orientation: In western blotting, separated proteins are transferred to a membrane and probed.

Results are given in words; binding and its absence hold for the method and conditions named. Binding calls can cover weak binding; strength is not graded here. Sequences can lack the tags named with a protein. For some assays here: In cells and extracts the contact can be indirect.

B1: FzlA fused to the T18 or T25 domain of adenylate cyclase (bacterial two-hybrid), A0A0H3CDY2 1-228 (protein)
chain: MSVERTLHHFPLDPASRQVRLALGEKRLPFVEMQVRYWEMPPEFTSLNPSGMPPVLVETKHQRNLVICETRAILEHIEETETEPPLLGRDPAERAEARRLLQWFDRKFDNEVNGFLLHEKMEKRLLRMGAPDLAALRQGREALRMHLGYIESLLQTRDWLAGRRMSLADFAAAAHLSVIDYFGDVPWKDFQAAKTWYMKLKSRPCFRPILADRWPGLAPAAHYDDLDF
For B1, the binding result in assay [1] is listed as “binds”.

B2: FzlA as two differently tagged copies in C. crescentus strain EG2452 (3xFLAG‐FzlA and mCherry‐FzlA), A0A0H3CDY2 1-228 (protein)
chain: MSVERTLHHFPLDPASRQVRLALGEKRLPFVEMQVRYWEMPPEFTSLNPSGMPPVLVETKHQRNLVICETRAILEHIEETETEPPLLGRDPAERAEARRLLQWFDRKFDNEVNGFLLHEKMEKRLLRMGAPDLAALRQGREALRMHLGYIESLLQTRDWLAGRRMSLADFAAAAHLSVIDYFGDVPWKDFQAAKTWYMKLKSRPCFRPILADRWPGLAPAAHYDDLDF
With B2, the binding result in assay [2] was “binds”.
